Test results: the supplement of paper PMC10849652
The list shows a part of the results.

Chains of the proteins cited; added tags and fusions are not shown. Lines headed by an entry give the natural chain unless they say otherwise; changes in a name come on top.
UniProt P24539: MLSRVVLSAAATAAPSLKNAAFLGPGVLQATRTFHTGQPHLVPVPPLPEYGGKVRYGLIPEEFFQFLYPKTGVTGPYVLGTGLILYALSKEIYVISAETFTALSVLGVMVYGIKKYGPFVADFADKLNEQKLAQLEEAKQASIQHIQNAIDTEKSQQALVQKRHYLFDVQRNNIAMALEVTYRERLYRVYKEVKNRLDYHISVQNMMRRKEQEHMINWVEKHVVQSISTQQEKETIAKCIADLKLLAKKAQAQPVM
UniProt P54252: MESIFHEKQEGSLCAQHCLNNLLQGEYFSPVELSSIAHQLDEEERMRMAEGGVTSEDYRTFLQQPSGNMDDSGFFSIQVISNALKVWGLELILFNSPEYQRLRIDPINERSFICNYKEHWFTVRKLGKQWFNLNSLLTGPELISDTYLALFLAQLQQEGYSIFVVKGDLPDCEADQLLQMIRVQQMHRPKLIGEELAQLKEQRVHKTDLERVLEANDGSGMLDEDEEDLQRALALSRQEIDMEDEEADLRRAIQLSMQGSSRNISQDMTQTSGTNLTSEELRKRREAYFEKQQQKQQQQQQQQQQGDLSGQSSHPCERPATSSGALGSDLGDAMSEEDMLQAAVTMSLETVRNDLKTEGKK
UniProt P25311: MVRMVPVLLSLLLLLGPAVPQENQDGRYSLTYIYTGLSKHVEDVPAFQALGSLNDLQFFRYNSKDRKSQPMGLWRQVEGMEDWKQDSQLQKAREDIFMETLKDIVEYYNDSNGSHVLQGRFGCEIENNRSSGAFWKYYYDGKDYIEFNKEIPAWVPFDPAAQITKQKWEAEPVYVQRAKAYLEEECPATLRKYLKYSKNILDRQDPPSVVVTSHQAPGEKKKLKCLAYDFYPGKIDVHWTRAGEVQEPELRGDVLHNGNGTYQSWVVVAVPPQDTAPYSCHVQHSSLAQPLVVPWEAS
UniProt P36542: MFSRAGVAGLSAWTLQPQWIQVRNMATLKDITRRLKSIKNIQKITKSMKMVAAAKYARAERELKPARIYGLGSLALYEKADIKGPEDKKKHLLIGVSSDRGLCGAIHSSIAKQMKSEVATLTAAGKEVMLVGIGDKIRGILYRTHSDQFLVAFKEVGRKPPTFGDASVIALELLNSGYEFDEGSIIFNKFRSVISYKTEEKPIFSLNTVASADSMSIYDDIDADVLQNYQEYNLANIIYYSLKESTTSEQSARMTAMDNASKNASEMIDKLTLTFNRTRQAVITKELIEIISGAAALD
UniProt Q8N5M1: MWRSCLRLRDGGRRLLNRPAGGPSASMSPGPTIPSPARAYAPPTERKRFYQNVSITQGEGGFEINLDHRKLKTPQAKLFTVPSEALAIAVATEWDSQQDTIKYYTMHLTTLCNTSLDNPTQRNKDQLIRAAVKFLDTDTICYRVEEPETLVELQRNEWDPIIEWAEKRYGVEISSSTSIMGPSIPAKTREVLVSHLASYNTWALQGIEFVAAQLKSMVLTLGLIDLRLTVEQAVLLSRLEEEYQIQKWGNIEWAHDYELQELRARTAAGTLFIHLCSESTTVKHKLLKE
UniProt Q7L266: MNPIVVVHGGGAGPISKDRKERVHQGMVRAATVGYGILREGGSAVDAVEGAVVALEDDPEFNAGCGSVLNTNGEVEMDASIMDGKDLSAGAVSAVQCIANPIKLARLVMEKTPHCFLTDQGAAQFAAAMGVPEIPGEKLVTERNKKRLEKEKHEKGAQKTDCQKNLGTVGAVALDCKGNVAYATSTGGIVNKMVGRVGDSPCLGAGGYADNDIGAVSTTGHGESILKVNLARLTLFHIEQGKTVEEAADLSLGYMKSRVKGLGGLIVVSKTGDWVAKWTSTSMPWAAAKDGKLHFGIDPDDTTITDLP
UniProt Q9UBB4: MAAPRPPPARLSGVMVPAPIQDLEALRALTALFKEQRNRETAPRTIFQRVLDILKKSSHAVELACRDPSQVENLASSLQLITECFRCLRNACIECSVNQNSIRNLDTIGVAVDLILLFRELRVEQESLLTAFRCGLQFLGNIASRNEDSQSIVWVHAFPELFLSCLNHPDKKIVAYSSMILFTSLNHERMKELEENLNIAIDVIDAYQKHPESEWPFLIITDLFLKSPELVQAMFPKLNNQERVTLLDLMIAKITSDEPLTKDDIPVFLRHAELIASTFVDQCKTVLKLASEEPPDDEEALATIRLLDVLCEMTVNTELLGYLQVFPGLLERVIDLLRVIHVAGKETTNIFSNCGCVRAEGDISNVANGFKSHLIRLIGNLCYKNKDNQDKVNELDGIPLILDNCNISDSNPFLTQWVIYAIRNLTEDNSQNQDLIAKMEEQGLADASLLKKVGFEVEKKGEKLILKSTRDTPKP
UniProt Q9NVP2, whole entry, looked up: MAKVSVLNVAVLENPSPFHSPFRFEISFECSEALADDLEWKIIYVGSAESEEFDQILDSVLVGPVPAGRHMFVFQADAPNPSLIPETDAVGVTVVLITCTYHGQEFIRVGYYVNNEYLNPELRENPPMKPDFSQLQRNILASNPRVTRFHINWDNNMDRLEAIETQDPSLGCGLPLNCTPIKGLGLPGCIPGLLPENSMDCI
UniProt Q9H1I8: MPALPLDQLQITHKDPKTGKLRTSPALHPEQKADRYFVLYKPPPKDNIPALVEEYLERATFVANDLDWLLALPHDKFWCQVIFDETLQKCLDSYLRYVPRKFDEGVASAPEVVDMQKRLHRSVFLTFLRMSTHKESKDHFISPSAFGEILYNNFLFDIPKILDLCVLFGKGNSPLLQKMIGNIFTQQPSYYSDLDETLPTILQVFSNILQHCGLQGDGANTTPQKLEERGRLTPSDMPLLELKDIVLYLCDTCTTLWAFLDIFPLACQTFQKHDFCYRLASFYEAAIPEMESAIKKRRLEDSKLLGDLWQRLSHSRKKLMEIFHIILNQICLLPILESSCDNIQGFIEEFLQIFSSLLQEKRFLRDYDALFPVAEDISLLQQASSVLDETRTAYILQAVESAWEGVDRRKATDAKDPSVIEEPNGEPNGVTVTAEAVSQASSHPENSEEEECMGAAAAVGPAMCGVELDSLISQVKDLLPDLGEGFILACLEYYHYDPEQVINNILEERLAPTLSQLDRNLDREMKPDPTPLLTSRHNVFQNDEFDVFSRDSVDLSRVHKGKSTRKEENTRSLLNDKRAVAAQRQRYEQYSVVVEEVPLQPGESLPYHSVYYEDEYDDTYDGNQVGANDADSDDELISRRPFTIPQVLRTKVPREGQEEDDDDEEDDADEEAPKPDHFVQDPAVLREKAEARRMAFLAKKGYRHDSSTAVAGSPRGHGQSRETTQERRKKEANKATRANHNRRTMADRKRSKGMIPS
UniProt P54709, whole entry, looked up: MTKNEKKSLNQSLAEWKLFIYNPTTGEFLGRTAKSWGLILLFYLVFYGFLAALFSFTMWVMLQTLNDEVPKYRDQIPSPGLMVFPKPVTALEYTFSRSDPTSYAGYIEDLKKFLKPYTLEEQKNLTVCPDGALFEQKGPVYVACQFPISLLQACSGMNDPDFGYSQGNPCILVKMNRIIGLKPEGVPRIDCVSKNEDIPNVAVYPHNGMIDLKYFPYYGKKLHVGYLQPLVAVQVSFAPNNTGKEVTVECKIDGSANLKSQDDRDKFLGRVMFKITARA
UniProt Q96DT6: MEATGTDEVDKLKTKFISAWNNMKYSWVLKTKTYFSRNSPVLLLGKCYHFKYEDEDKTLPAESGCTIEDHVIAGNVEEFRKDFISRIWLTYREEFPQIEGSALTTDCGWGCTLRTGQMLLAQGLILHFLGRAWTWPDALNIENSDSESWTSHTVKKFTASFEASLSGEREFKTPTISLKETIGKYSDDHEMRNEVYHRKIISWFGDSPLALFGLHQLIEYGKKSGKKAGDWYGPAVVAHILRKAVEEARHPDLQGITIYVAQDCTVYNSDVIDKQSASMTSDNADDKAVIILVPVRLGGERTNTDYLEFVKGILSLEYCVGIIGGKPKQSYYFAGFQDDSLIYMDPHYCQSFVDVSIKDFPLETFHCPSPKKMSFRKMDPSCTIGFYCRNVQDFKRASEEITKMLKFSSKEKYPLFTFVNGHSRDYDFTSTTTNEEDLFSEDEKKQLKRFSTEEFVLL
UniProt Q13733, whole entry, looked up: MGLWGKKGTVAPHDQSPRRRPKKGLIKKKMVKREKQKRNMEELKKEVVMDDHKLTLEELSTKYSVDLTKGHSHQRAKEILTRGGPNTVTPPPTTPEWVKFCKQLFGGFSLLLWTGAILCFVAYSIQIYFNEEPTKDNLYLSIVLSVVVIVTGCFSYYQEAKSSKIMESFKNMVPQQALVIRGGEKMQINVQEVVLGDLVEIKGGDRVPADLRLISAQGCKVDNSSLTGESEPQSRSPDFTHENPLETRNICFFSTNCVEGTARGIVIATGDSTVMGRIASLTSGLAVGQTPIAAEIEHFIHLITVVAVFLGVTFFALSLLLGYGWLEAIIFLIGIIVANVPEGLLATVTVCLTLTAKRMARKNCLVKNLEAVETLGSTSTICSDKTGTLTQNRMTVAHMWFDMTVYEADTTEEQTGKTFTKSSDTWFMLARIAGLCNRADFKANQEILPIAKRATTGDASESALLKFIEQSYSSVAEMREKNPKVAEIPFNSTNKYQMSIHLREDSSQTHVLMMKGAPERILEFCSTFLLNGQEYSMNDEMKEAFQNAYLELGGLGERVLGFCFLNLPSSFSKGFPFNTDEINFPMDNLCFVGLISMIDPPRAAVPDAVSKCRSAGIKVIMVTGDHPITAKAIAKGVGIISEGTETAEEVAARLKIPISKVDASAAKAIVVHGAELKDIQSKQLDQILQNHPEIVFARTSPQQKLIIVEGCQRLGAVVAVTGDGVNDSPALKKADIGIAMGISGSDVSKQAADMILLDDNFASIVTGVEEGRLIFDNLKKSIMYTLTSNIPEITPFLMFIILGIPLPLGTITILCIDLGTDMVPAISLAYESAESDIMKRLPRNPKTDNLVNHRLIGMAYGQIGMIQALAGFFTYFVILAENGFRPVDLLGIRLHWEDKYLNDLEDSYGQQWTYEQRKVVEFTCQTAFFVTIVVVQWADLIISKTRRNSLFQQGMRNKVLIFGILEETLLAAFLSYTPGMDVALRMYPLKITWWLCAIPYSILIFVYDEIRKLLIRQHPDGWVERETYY
UniProt Q8WWM7: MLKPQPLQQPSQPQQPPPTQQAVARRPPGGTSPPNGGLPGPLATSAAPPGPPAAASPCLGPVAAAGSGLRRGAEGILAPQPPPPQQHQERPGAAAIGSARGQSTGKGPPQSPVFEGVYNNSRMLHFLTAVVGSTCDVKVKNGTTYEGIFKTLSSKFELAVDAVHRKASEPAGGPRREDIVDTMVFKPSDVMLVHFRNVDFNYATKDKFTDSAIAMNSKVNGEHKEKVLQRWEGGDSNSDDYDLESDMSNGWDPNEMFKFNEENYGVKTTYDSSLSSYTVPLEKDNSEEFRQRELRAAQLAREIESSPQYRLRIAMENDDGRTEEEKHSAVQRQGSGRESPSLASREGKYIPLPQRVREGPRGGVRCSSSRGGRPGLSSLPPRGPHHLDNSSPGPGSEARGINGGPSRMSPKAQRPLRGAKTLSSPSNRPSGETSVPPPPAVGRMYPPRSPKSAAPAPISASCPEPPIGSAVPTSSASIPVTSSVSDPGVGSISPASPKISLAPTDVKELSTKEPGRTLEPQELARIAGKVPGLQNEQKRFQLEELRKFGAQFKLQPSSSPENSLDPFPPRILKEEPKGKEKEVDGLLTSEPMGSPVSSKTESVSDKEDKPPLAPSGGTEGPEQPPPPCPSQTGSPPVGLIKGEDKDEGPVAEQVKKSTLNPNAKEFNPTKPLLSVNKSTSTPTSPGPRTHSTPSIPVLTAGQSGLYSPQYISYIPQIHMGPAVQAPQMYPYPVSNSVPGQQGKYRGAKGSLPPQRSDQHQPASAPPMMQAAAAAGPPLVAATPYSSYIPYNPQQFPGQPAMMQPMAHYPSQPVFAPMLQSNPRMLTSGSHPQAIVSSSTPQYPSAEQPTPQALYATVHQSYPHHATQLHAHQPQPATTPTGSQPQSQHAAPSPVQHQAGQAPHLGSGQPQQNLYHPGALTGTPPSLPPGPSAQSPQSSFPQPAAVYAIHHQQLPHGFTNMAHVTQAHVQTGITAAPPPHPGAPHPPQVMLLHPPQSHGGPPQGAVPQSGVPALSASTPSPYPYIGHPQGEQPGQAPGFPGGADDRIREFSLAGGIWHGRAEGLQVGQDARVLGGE
UniProt P56385: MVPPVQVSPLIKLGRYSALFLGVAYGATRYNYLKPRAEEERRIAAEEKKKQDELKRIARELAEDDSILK

Legend:
Experiment in all cases: log2 fold change, soluble protein after heating vs DMSO (PISA); higher = thermal stabilisation; K562 lysate, 10 uM; active = over 0.2 and 3.5 SD of the protein, either way, in both replicates (recomputed)
[1] = compound: C#Cc1cccc(Nc2ncnc3cc(OCCOC)c(OCCOC)cc23)c1 [erlotinib]
Outline: (§1)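 The values are log-two fold changes in thermal stability compared with solvent controls and come from duplicates. They were obtained by TMTpro 16plex LC-MS/MS, with channel sums equalised, on the supernatant after 21,000xg for 90 min. That supernatant came from crude K562 extract at 1 mg/mL protein treated with 10 μM compound for 30 min, heated for 3 min across 48°C-58°C, pooled and brought to 0.5% NP-40 at 4°C.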

[2] = compound: C/C(=N\NC(=O)C1=CC(=CC=C1)S(=O)(=O)N2CCOCC2)/C3=C(C=CC(=C3)Cl)O
Outline: as §1

[3] = compound: C1=CC(=CC=C1C2=NC3=C(N2)C=C(C=C3)C(=O)N)OC4=CC=C(C=C4)Cl
Outline: as §1

[4] = compound: C1=CC2=C(C=CC(=C2)/C=C\3/C(=O)NC(=NCC4=CC=CS4)S3)N=C1
Outline: as §1

[5] = compound: C1=CC2=NC=CN=C2C=C1/C=C/3\C(=O)NC(=O)S3
Outline: as §1

[6] = compound: C1=CC=C(C=C1)C2=NC(=C(N2)C3=CC=NC=C3)C4=CC(=C(C=C4)Cl)O
Outline: as §1

[7] = compound: C1=CC=C2C(=C1)C3=NNC4=CC=CC(=C43)C2=O
Outline: as §1

[8] = compound: C1CCN(C1)C(=O)NC2=CC=CC(=C2)NC3=NC=C(C(=N3)NCCC4=CN=CN4)Br
Outline: as §1

[9] = compound: C1CN(CCC1(CC2=CC=C(C=C2)Cl)N)C3=NC=NC4=C3C=CN4
Outline: as §1

[10] = compound: C1COCCN1CCN2C3=CC=CC=C3N=C2NC(=O)C4=CC(=CC=C4)[N+](=O)[O-] [IRAK-1-4 Inhibitor I]
Outline: as §1

[11] = compound: C=CC(=O)N1CCC[C@@H](n2nc(-c3ccc(Oc4ccccc4)cc3)c3c(N)ncnc32)C1 [ibrutinib]
Outline: as §1

[12] = compound: CC(=O)c1cnc2ccc(-c3cc(Cl)c(O)c(Cl)c3)nc2c1N[C@H]1CC[C@H](CN(C)C)CC1
Outline: as §1

[13] = compound: CC(C)(C)Cn1c(N)nc2ccc(-c3[nH]c(C(C)(C)C)nc3-c3ccc(F)cc3)nc21 [ralimetinib]
Outline: as §1

[14] = compound: CC(C)(O)CC(=O)NCCn1ccc2ncnc(Nc3ccc(Oc4cccc(C(F)(F)F)c4)c(Cl)c3)c21
Outline: as §1

[15] = compound: CC(C)C1=C2N=C(C=C(N2N=C1)NCC3=CC=CC=C3)NCCCCCCN
Outline: as §1

[16] = compound: CC1=C(C(CC(=O)N1)C2=CC=C(C=C2)C(F)(F)F)C(=O)NC3=C(C=C4C(=C3)C=NN4)F
Outline: as §1

[17] = compound: CC1=C(C2=C(C=C1)C(=O)C3=CC=CC=C3N2CCCN)C
Outline: as §1

[18] = compound: CC1=C(C=C(C=C1)NC(=O)C2=CC(=CC=C2)C(C)(C)C#N)NC3=CC4=C(C=C3)N=CN(C4=O)C
Outline: as §1

[19] = compound: CC1=C(C=C(C=C1)NC(=O)C2=CC(=CC=C2)N(C)C)NC(=O)C3=CC=C(C=C3)O
Outline: as §1

[20] = compound: CC1=CC=C(C=C1)SC2=C3C=C(SC3=CN=C2)C(=O)N
Outline: as §1

Row | Target | log2 fold change [1] | log2 fold change [2] | log2 fold change [3] | log2 fold change [4] | log2 fold change [5] | log2 fold change [6] | log2 fold change [7] | log2 fold change [8] | log2 fold change [9] | log2 fold change [10] | log2 fold change [11] | log2 fold change [12] | log2 fold change [13] | log2 fold change [14] | log2 fold change [15] | log2 fold change [16] | log2 fold change [17] | log2 fold change [18] | log2 fold change [19] | log2 fold change [20]
1 | ATP6V1H (UniProt Q9UI12) | inactive: 0.01 | inactive: -0.005 | inactive: 0 | inactive: -0.031 | inactive: -0.009 | inactive: 0.01 | inactive: 0.006 | inactive: -0.006 | inactive: 0.022 | inactive: 0.014 | inactive: 0 | inactive: -0.016 | inactive: -0.036 | inactive: -0.034 | inactive: -0.031 | inactive: -0.004 | inactive: -0.02 | inactive: 0.003 | inactive: 0.018 | inactive: -0.008
2 | ATP5PB (UniProt P24539) | inactive: -0.031 | inactive: 0.012 | inactive: -0.01 | inactive: 0 | inactive: 0.018 | inactive: 0.005 | inactive: 0.009 | inactive: 0.012 | inactive: 0.015 | inactive: 0 | inactive: -0.007 | inactive: -0.031 | inactive: -0.036 | inactive: 0.003 | inactive: 0.005 | inactive: -0.01 | inactive: 0.006 | inactive: -0.016 | inactive: -0.005 | inactive: 0.014
3 | ATXN3 isoform 1 (UniProt P54252) | inactive: 0.001 | inactive: -0.02 | inactive: 0.001 | inactive: 0.059 | inactive: 0.113 | inactive: 0.024 | inactive: -0.032 | inactive: -0.052 | inactive: -0.013 | inactive: -0.015 | inactive: 0.009 | inactive: -0.005 | inactive: 0.013 | inactive: -0.079 | inactive: -0.017 | inactive: 0.017 | inactive: 0.052 | inactive: 0.031 | inactive: -0.012 | inactive: 0.056
4 | AZGP1 (UniProt P25311) | inactive: -0.117 | inactive: 0.29 | inactive: -0.304 | inactive: -0.24 | inactive: 0.308 | inactive: 0.282 | inactive: -0.179 | inactive: 0.211 | inactive: -0.26 | inactive: -0.484 | inactive: -0.09 | inactive: -0.257 | inactive: -0.311 | inactive: 0.512 | inactive: 0.409 | inactive: 0.763 | inactive: 0.284 | inactive: 0.101 | inactive: 0.042 | inactive: -0.318
5 | ATP5F1C (UniProt P36542) | inactive: -0.029 | inactive: 0.009 | inactive: 0.008 | inactive: -0.006 | inactive: -0.009 | inactive: 0.018 | inactive: 0.01 | inactive: 0.015 | inactive: 0.012 | inactive: -0.007 | inactive: -0.024 | inactive: -0.012 | inactive: -0.017 | inactive: -0.039 | inactive: -0.029 | inactive: -0.001 | inactive: -0.013 | inactive: 0.014 | inactive: -0.022 | inactive: -0.003
6 | ATP11A (UniProt P98196) | inactive: -0.003 | inactive: -0.067 | inactive: -0.033 | inactive: -0.011 | inactive: -0.022 | inactive: 0.016 | inactive: 0.102 | inactive: -0.005 | inactive: -0.015 | inactive: 0.087 | inactive: -0.02 | inactive: 0.091 | inactive: 0.122 | inactive: -0.046 | inactive: -0.017 | inactive: -0.019 | inactive: -0.065 | inactive: -0.006 | inactive: -0.074 | inactive: 0.02
7 | ATPAF2 (UniProt Q8N5M1) | inactive: 0.012 | inactive: -0.005 | inactive: -0.015 | inactive: -0.014 | inactive: -0.006 | inactive: 0.007 | inactive: -0.058 | inactive: -0.031 | inactive: 0.054 | inactive: -0.007 | inactive: 0.002 | inactive: -0.005 | inactive: -0.032 | inactive: -0.075 | inactive: -0.051 | inactive: 0.019 | inactive: -0.008 | inactive: 0.082 | inactive: -0.013 | inactive: 0.003
8 | ASRGL1 (UniProt Q7L266) | inactive: -0.032 | inactive: 0.021 | inactive: 0.028 | inactive: -0.051 | inactive: -0.051 | inactive: -0.008 | inactive: 0.001 | inactive: 0.022 | inactive: 0.025 | inactive: 0.035 | inactive: 0.065 | inactive: 0.014 | inactive: 0.057 | inactive: -0.009 | inactive: 0.007 | inactive: 0.018 | inactive: 0.011 | inactive: 0.011 | inactive: -0.04 | inactive: 0.004
9 | ATXN10 (UniProt Q9UBB4) | inactive: 0.031 | inactive: -0.031 | inactive: 0.003 | inactive: 0.031 | inactive: 0.015 | inactive: 0.012 | inactive: -0.025 | inactive: -0.007 | inactive: 0.021 | inactive: 0.013 | inactive: 0.001 | inactive: -0.013 | inactive: -0.002 | inactive: -0.051 | inactive: -0.027 | inactive: -0.022 | inactive: 0.001 | inactive: 0.011 | inactive: 0.009 | inactive: -0.013
10 | ASF1B (UniProt Q9NVP2) | inactive: -0.003 | inactive: -0.005 | inactive: 0.019 | inactive: 0.091 | inactive: -0.028 | inactive: 0.001 | inactive: -0.002 | inactive: -0.047 | inactive: 0.033 | inactive: 0.062 | inactive: 0.107 | inactive: 0.022 | inactive: -0.019 | inactive: 0.032 | inactive: -0.007 | inactive: 0.047 | inactive: -0.025 | inactive: 0.006 | inactive: 0.024 | inactive: -0.03
11 | ASCC2 (UniProt Q9H1I8) | inactive: 0.04 | inactive: -0.106 | inactive: -0.077 | inactive: 0.083 | inactive: 0.029 | inactive: -0.016 | inactive: -0.048 | inactive: -0.054 | inactive: 0.037 | inactive: -0.042 | active: -0.328 | inactive: 0.029 | inactive: 0.057 | inactive: -0.041 | inactive: 0.012 | inactive: 0.004 | inactive: 0.02 | inactive: 0.01 | inactive: 0.064 | inactive: -0.01
12 | ATP1B3 (UniProt P54709) | inactive: -0.009 | inactive: -0.021 | inactive: 0.013 | inactive: -0.002 | inactive: 0.02 | inactive: 0.01 | inactive: 0.014 | inactive: -0.003 | inactive: 0.009 | inactive: -0.008 | inactive: -0.014 | inactive: 0.003 | inactive: -0.003 | inactive: 0.007 | inactive: -0.009 | inactive: -0.014 | inactive: -0.009 | inactive: -0.01 | inactive: 0.008 | inactive: -0.021
13 | ATG4C (UniProt Q96DT6) | inactive: -0.055 | inactive: 0.022 | inactive: -0.014 | inactive: 0.05 | inactive: -0.014 | inactive: 0.021 | inactive: -0.073 | inactive: -0.104 | inactive: -0.002 | inactive: 0.012 | inactive: -0.008 | inactive: -0.035 | inactive: -0.04 | inactive: 0.038 | inactive: -0.004 | inactive: 0.001 | inactive: -0.025 | inactive: 0.012 | inactive: -0.02 | inactive: -0.022
14 | ATP1A4 (UniProt Q13733) | inactive: 0.006 | inactive: 0.063 | inactive: 0.001 | inactive: -0.002 | inactive: -0.006 | inactive: 0.003 | inactive: 0.014 | inactive: 0.007 | inactive: 0.017 | inactive: 0.007 | inactive: -0.017 | inactive: 0.032 | inactive: -0.045 | inactive: 0.03 | inactive: -0.032 | inactive: -0.01 | inactive: -0.018 | inactive: 0.021 | inactive: -0.025 | inactive: 0.016
15 | ATXN2L isoform 3 (UniProt Q8WWM7) | inactive: -0.009 | inactive: -0.011 | inactive: 0.054 | inactive: -0.017 | inactive: -0.008 | inactive: -0.011 | inactive: -0.018 | inactive: 0.006 | inactive: 0.009 | inactive: 0.005 | inactive: -0.019 | inactive: 0 | inactive: 0.001 | inactive: -0.02 | inactive: 0.003 | inactive: 0.008 | inactive: 0.012 | inactive: -0.042 | inactive: 0.02 | inactive: -0.021
16 | ATP5ME (UniProt P56385) | inactive: 0 | inactive: -0.039 | inactive: 0.001 | inactive: -0.003 | inactive: 0.029 | inactive: -0.037 | inactive: 0.01 | inactive: 0.004 | inactive: 0.058 | inactive: 0.006 | inactive: 0.009 | inactive: -0.021 | inactive: 0.024 | inactive: -0.037 | inactive: -0.037 | inactive: -0.028 | inactive: -0.037 | inactive: 0.039 | inactive: -0.03 | inactive: -0.045

Laid out differently: entries from further up
Row	Target	log2 fold change [1]	log2 fold change [2]	log2 fold change [3]	log2 fold change [4]	log2 fold change [5]	log2 fold change [6]	log2 fold change [7]	log2 fold change [8]	log2 fold change [9]	log2 fold change [10]	log2 fold change [11]	log2 fold change [12]	log2 fold change [13]	log2 fold change [14]	log2 fold change [15]	log2 fold change [16]	log2 fold change [17]	log2 fold change [18]	log2 fold change [19]	log2 fold change [20]
5	ATP5F1C (UniProt P36542)	inactive: -0.029	inactive: 0.009	inactive: 0.008	inactive: -0.006	inactive: -0.009	inactive: 0.018	inactive: 0.01	inactive: 0.015	inactive: 0.012	inactive: -0.007	inactive: -0.024	inactive: -0.012	inactive: -0.017	inactive: -0.039	inactive: -0.029	inactive: -0.001	inactive: -0.013	inactive: 0.014	inactive: -0.022	inactive: -0.003
12	ATP1B3 (UniProt P54709)	inactive: -0.009	inactive: -0.021	inactive: 0.013	inactive: -0.002	inactive: 0.02	inactive: 0.01	inactive: 0.014	inactive: -0.003	inactive: 0.009	inactive: -0.008	inactive: -0.014	inactive: 0.003	inactive: -0.003	inactive: 0.007	inactive: -0.009	inactive: -0.014	inactive: -0.009	inactive: -0.01	inactive: 0.008	inactive: -0.021
